The results in this text go back to PubChem BioAssay.

The structures appear in SMILES notation. This is one part of the list. These are further read-outs of the screen, such as a control signal, another cell line or another target. No call is given for them. Most of these compounds were active or inconclusive in the main read-out, so they are no random draw.

The assay can be described thus: reducers of endogenous Her2 protein level, primary screen, SKBR3 breast tumor cells, AlphaScreen, ATP viability (AID 461).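 Also: percent of carrier control wells set as 100% viability.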 As to conditions: 18-24 h, measured here: SKBR3 viability, ATP luminescence, at 10 µM.
As to `COc1ccc(-c2nc3cc(NC(=O)Cc4ccc(OC)c(OC)c4)ccc3o2)cc1`, the viability came out at 90.5%.

In the case of `Clc1cccc(-c2nnc(-c3ccccc3)o2)c1`, the viability amounted to 57%.

As to `c1cc(C(c2nnnn2C2CCCC2)N2CCOCC2)ccn1` (configuration not stated), the viability worked out at 96.5%.

On to `O=C(CC(SCCO)c1ccc2c(c1)OCO2)c1ccco1` (configuration not stated), for which the viability stood at 77.5%.

For `COC(=O)C1=C(C)NC(C)=C(C(=O)OC)C1C(=O)OC1CCCCC1=O` (configuration not stated), the viability stood at 89%.

Take `CCOC(=O)CSc1nnc(-c2ccc(NS(=O)(=O)c3ccc(C)cc3)cc2)o1`: the viability was determined as 87%.

Consider `Cc1ccc(F)cc1NC(=O)c1cccc2nccnc12`, for which the viability is 91.5%.

With `O=C(c1cc(-c2cccc(O)c2)on1)N1CCN(C(c2ccccc2)c2ccccc2)CC1`, the viability amounted to 74%.

On to `Cc1cc(C)n2c(SCC(=O)Nc3cc(C)on3)nnc2n1`, for which the viability is 91.5%.

With `COc1ccc(-n2ncc3c(NCc4ccc5c(c4)OCO5)ncnc32)cc1`, the viability was determined as 92.5%.

With `O=C(Nc1ccc2c(c1)nc1n2CCN(Cc2ccccc2)C1)c1cccs1`, the viability is 76.5%.

On to `CCOC(=O)c1ccc(NC(=O)CCc2nc(-c3ccc(C)cc3)no2)cc1`, for which the viability came to 85%.

Consider `COc1ccccc1NC(=O)c1oc2ccccc2c1NC(=O)c1cc(OC)c(OC)c(OC)c1`, for which the viability amounted to 56.5%.

`CCN(CC)S(=O)(=O)c1ccc2[nH]cc(C(=O)NCCC3=CCCCC3)c(=O)c2c1`: the viability came out at 138%.

Turning to `O=C(NCc1ccccc1)C1CCCN(S(=O)(=O)c2cccnc2)C1` (configuration not stated), the viability was 92%.

With `CC(C)CC1NC(=O)N(CC(=O)N2CCN(S(=O)(=O)c3ccc(Cl)cc3)CC2)C1=O` (configuration not stated), the viability is 97%.

With `c1ccc(-c2ccc(-c3ccccn3)nn2)nc1`, the viability came out at 112%.

`CCOC(=O)c1ccccc1NC1c2ccccc2C(=O)N1C1CCN(C(=O)OCC)CC1` (configuration not stated): the viability amounted to 126%.

Turning to `Cc1oc(-c2cccc(Cl)c2)nc1CN1CCC(C(=O)N2CCN(c3ccccc3F)CC2)CC1`, the viability worked out at 73%.

Take `OCCN1CCN(CCCN2c3ccccc3Sc3ccc(C(F)(F)F)cc32)CC1`: the viability came out at 3%.

As to `CCc1ccccc1NC(=O)C(CC)Sc1nc2cc3c(cc2c(=O)n1Cc1ccco1)OCO3` (configuration not stated), the viability turned out to be 95.5%.

With `CCCCOc1ccc(S(=O)(=O)n2c(C)nc3ccccc32)cc1`, the viability came out at 138%.

Turning to `Cc1[nH]nc2c1C(c1ccc(F)cc1)C1=C(CC(C)(C)CC1=O)N2` (configuration not stated), the viability came to 126%.

In the case of `CC(C)[C@H](NC(=O)OC(C)(C)C)c1nnc(S(=O)(=O)Cc2c(F)cccc2Cl)o1`, the viability came to 108%.

On to `Cc1cc(-n2c(C)cc(C(=O)CSc3nnnn3-c3ccc(Cl)cc3)c2C)no1`, for which the viability came to 81.5%.

Regarding `Cn1c(C(=O)Nc2ccc3c(c2)OCO3)cc2c(=O)n(C)c3ccccc3c21`, the viability stood at 73%.

Turning to `Cc1cccc(C)c1OCC(=O)Nc1cccc(NC(=O)c2ccco2)c1`, the viability is 97%.

Regarding `CN(C)CCCN1c2ccccc2Sc2ccccc21`, the viability was 66.5%.

As to `Cc1ccc(-c2nnc3c4ccccc4c(C)nn23)cc1S(=O)(=O)N1CCN(C)CC1`, the viability was 85%.

`COc1ccc(CCn2c(=N)c(C(=O)NCc3ccco3)cc3c(=O)n4ccccc4nc32)cc1`: the viability stood at 73%.

With `COc1ccc(-c2nnc(SCC(=O)Nc3sc4c(c3C#N)CCC4)n2CC2CCCO2)cc1` (configuration not stated), the viability turned out to be 89%.

On to `Cc1cc(=O)n(CCO)c(O)c1C#N`, for which the viability was found to be 81.5%.

Consider `O=C(Nc1nc2c(s1)CCCC2)C1COc2ccccc2O1` (configuration not stated), for which the viability worked out at 103%.

For `Cc1ccc(C)n1-c1ccc(N2CCOCC2)cc1`, the viability is 104%.

As to `Cc1cc(C)nc(SC2=CS(=O)(=O)c3ccccc32)n1`, the viability came to 102%.

For the compound `CCOC(=O)Nc1c(O)ccc2oc(C)c(-c3ccccc3)c12`, the viability amounted to 102%.

As for `O=C(C1CCCN(S(=O)(=O)c2cccc3nonc23)C1)N1CCC(Cc2ccccc2)CC1` (configuration not stated), the viability was determined as 103%.
